Test results published in the supplement of paper PMC10849652.
The list shows a part of the results.

Sequences of proteins named here, by UniProt entry; tags and fusion partners are left off. A change or cut given only in a name is not applied to a line headed by its entry.
UniProt P54132: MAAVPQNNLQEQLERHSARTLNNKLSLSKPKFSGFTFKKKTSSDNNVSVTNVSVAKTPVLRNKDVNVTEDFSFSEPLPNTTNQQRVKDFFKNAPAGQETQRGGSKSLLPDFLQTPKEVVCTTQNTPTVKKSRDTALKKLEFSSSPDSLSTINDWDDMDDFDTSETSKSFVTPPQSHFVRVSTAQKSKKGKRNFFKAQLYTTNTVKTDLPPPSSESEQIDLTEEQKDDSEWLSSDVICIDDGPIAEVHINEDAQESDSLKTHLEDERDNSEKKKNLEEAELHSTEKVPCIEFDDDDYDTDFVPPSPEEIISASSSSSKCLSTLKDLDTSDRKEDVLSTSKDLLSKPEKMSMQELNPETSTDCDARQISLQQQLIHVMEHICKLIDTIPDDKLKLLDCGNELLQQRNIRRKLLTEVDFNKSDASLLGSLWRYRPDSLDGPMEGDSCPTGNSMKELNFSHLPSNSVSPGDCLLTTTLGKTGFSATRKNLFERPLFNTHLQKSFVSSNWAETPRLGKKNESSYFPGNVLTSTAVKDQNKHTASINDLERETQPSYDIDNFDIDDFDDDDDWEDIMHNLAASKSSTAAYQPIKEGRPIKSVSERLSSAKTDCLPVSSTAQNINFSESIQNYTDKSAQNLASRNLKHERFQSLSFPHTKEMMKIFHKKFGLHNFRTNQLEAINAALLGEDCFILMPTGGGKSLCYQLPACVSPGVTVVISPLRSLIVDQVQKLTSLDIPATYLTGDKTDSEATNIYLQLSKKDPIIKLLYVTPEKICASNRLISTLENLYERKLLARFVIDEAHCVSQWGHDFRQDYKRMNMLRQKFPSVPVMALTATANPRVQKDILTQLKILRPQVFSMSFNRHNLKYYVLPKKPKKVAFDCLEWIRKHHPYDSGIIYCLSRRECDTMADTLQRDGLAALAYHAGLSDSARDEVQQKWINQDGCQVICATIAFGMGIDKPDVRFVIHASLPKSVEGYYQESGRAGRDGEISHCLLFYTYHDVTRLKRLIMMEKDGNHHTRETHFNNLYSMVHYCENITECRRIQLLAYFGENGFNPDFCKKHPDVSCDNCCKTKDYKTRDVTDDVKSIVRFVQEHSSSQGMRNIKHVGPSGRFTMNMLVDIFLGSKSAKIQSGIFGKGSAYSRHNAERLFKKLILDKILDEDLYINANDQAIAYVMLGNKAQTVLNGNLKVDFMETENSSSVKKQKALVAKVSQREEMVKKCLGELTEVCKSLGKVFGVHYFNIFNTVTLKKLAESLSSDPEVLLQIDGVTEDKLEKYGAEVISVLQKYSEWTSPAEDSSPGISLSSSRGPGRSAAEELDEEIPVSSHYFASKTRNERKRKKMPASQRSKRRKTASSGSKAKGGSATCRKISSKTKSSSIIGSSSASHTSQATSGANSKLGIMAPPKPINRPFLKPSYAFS
UniProt Q8TDH9: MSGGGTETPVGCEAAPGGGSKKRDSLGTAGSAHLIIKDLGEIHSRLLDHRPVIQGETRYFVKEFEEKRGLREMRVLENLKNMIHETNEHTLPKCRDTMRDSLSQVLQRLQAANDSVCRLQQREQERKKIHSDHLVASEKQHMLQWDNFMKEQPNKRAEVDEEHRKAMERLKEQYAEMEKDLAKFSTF
UniProt O75363: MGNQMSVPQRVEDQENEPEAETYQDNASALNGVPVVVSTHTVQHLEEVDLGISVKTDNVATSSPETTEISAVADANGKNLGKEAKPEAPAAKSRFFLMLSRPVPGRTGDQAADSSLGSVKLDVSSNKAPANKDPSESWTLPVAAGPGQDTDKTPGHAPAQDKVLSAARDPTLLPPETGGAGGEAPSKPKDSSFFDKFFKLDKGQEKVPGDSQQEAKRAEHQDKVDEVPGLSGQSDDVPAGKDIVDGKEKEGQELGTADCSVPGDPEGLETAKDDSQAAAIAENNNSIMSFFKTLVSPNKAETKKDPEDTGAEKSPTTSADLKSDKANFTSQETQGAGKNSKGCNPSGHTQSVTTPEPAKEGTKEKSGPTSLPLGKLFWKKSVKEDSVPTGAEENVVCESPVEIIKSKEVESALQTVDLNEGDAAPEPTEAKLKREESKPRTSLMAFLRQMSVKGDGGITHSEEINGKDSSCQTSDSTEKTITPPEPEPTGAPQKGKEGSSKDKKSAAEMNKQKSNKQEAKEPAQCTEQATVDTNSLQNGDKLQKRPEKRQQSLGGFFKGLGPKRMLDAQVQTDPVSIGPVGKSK
UniProt Q7Z5W3: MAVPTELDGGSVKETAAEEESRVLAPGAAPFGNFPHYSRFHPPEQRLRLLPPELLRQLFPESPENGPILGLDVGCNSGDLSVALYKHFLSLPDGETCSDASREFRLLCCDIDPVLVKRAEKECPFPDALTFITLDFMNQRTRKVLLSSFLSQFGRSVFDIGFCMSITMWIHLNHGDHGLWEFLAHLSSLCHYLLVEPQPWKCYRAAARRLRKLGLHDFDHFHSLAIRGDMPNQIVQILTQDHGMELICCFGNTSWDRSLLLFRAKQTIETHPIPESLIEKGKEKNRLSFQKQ
UniProt Q12981: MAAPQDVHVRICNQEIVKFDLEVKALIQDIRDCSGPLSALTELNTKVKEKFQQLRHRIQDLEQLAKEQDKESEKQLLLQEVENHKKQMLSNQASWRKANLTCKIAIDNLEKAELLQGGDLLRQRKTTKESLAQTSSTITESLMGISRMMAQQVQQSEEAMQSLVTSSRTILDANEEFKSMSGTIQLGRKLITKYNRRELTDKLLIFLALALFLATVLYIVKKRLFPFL
UniProt Q9NP55: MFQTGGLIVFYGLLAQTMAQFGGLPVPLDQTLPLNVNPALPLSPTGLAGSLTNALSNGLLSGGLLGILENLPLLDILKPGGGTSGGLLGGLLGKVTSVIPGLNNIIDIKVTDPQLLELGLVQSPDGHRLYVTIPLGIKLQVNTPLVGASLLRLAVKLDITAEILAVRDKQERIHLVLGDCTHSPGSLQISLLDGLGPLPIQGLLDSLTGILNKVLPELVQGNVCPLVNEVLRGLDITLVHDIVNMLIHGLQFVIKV
UniProt O60512: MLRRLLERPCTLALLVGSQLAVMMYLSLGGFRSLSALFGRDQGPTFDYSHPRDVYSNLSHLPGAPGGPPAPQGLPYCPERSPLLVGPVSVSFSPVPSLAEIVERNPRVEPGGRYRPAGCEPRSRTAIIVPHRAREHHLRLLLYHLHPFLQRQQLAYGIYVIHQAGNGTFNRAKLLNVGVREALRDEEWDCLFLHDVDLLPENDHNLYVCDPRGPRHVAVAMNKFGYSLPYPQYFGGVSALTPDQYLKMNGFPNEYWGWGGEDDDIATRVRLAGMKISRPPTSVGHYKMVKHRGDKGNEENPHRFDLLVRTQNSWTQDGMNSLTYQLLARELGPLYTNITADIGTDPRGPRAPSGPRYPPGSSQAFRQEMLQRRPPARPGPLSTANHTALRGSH
UniProt P46736, whole entry, looked up: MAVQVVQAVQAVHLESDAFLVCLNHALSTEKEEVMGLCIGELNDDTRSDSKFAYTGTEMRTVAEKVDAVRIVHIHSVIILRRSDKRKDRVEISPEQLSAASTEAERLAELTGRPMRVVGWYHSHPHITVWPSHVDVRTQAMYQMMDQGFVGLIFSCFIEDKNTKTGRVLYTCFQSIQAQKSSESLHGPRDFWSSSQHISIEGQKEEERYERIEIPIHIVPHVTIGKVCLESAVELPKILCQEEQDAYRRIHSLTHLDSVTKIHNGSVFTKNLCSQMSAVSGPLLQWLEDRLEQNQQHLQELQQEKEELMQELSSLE
UniProt Q9UIG0: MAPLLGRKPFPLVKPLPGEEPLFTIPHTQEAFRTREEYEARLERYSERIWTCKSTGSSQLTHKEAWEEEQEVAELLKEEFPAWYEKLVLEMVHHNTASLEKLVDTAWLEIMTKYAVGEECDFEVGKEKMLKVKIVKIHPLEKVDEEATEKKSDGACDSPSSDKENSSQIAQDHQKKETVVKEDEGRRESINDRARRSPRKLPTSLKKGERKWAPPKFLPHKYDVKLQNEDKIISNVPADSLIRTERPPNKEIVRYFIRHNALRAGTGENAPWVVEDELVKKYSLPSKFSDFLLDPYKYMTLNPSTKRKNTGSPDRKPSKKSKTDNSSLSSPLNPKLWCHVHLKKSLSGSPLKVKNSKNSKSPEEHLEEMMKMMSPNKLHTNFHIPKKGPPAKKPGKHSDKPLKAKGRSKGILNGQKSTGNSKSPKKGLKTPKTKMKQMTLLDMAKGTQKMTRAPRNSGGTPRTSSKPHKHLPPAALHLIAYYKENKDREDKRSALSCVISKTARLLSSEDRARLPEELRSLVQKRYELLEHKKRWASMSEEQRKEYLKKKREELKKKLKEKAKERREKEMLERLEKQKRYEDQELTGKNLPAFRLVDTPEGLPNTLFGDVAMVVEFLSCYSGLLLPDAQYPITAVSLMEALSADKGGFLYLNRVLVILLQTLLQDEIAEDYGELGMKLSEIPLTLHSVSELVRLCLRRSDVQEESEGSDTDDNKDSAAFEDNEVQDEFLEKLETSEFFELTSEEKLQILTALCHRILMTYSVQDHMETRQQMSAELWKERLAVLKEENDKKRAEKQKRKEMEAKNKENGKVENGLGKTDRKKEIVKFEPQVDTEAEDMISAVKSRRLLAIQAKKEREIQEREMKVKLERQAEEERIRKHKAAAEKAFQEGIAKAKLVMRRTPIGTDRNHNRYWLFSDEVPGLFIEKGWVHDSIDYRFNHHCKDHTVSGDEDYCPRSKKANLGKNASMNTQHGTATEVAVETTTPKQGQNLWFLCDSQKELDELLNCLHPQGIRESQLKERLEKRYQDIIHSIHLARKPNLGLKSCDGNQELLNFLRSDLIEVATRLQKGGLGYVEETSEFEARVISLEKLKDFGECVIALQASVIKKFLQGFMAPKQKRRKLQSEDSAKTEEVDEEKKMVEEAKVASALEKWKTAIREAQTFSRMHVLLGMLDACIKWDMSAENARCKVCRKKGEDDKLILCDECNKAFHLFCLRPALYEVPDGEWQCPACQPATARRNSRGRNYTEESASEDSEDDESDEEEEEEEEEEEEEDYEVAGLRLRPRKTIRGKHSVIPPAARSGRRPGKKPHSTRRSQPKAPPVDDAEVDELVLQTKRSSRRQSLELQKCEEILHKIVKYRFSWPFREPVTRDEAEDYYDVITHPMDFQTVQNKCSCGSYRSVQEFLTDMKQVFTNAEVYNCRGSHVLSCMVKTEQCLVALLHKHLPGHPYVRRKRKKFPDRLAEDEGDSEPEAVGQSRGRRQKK

Each target was assayed with c1cn2cc(-c3ccc4cn[nH]c4c3)nc(Nc3ccc(N4CCOCC4)cc3)c2n1 [entospletinib] (assay: log2 fold change, soluble protein after heating vs DMSO (PISA); higher = thermal stabilisation; K562 cells, 10 uM, 30 min; active = over 0.2 and 3.5 SD of the protein, either way, in both replicates (recomputed)).
Method in brief: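 K562 cells at 2×10^6 cells/mL were exposed to 10 μM compound for 30 min, then aliquots were heated for 3 min across 48°C-58°C, pooled, and extracted in PBS containing 0.5% NP-40 at 4°C. The supernatant after 21,000xg for 90 min was taken as soluble protein and measured by TMTpro 16plex LC-MS/MS with channel sums equalised. Thermal stability is reported relative to control samples, with values from duplicates. Fold changes are given on a log2 scale.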

log2 fold change, inactive:
BLM (UniProt P54132) 0.085
BLOC1S5 (UniProt Q8TDH9) 0.003
BCAS1 (UniProt O75363) 0.059
BCDIN3D (UniProt Q7Z5W3) -0.066
BNIP1 (UniProt Q12981) -0.019
BPIFA1 (UniProt Q9NP55) -0.121
B4GALT3 (UniProt O60512) 0.062
BRCC3 (UniProt P46736) -0.036
BAZ1B (UniProt Q9UIG0) -0.049
